The target in the assay is T1, CHCHD2-Flag, Q9Y6H1.
T1 chain: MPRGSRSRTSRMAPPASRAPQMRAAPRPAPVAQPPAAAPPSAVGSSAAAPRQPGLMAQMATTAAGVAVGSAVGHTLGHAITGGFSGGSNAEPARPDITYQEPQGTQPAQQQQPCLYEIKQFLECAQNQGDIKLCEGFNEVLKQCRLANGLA
Nature of the assay: co-IP. Particulars: remark: other sources report otherwise.

These are yes or no findings as the source states them, for the method shown. Binding seen in cells or lysates may run through a third protein. Tags and fused reporters may be left off the sequences shown.

B1: SLP-2 (endogenous), Q9UJZ1 29-356 (protein)
chain: SSGLPRNTVVLFVPQQEAWVVERMGRFHRILEPGLNILIPVLDRIRYVQSLKEIVINVPEQSAVTLDNVTLQIDGVLYLRIMDPYKASYGVEDPEYAVTQLAQTTMRSELGKLSLDKVFRERESLNASIVDAINQAADCWGIRCLRYEIKDIHVPPRVKESMQMQVEAERRKRATVLESEGTRESAINVAEGKKQAQILASEAEKAEQINQAAGEASAVLAKAKAKAEAIRILAAALTQHNGDAAASLTVAEQYVSAFSKLAKDSNTILLPSNPGDVTSMVAQAMGVYGALTKAPVPGTPDSLSSGSSRDVQGTDASLDEELDRVKMS
Turning to B1, the binding result is “no binding”.

Values taken from paper doi:10.1101/773135.
